Record: PubChem BioAssay AID1224830 (NIAID, 2016)
Test: 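Genes whose knock-down alters the TNF-alpha reporter response to LPS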 (primary screen). Cell system: human THP-1 monocytic leukaemia cells, TNF dual-luciferase reporter clone, PMA-differentiated to macrophage-like cells. Reagents: siRNA pool against human genes, 50 nM. Duration: LPS for 4 h, given about 3 days after siRNA transfection. Challenge: bacterial LPS (TLR4 ligand), 10 ng/ml. Measured: 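TNF firefly reporter luminescence divided by renilla, normalised to the plate median, then turned into a robust z-score for each replicate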. Scale: TNF reporter robust z-score: higher = stronger TNF reporter response to LPS. Hit rule: 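Each well counts as active if its z-score is over 2.8 or under -1.5; controls are left without a call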.
The deposit covers about 18,000 reagents; below is a random part of them. About 2,900 of all reagents (16%) count as active. 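Calls are made per well; low scores hint the gene aids the LPS response, high scores that it dampens it.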 Entries without a mark were called inactive. Repeated entries: four replicate wells of each siRNA pool.

VMAC — TNF reporter robust z-score: 2.14
VMAC — TNF reporter robust z-score: 2.91 (active)
VMAC — TNF reporter robust z-score: 1.97
VMAC — TNF reporter robust z-score: 2.77
GAS6 — TNF reporter robust z-score: 0.79
GAS6 — TNF reporter robust z-score: -0.8
GAS6 — TNF reporter robust z-score: -0.95
GAS6 — TNF reporter robust z-score: -0.32
OR6N2 — TNF reporter robust z-score: 0.39
OR6N2 — TNF reporter robust z-score: 0.84
OR6N2 — TNF reporter robust z-score: 0.96
OR6N2 — TNF reporter robust z-score: 1.82
DNASE1L2 — TNF reporter robust z-score: 0.95
DNASE1L2 — TNF reporter robust z-score: 1.61
DNASE1L2 — TNF reporter robust z-score: 1.21
DNASE1L2 — TNF reporter robust z-score: 0.9
NLGN2 — TNF reporter robust z-score: -1.39
NLGN2 — TNF reporter robust z-score: -0.47
NLGN2 — TNF reporter robust z-score: 0
NLGN2 — TNF reporter robust z-score: 0.15
BMS1 — TNF reporter robust z-score: -1.15
BMS1 — TNF reporter robust z-score: -1.21
BMS1 — TNF reporter robust z-score: -1.59 (active)
BMS1 — TNF reporter robust z-score: -1.72 (active)
PFDN4 — TNF reporter robust z-score: -0.29
PFDN4 — TNF reporter robust z-score: -0.31
PFDN4 — TNF reporter robust z-score: -0.06
PFDN4 — TNF reporter robust z-score: -0.56
SUPT7L — TNF reporter robust z-score: -1.47
SUPT7L — TNF reporter robust z-score: 0.02
SUPT7L — TNF reporter robust z-score: 0.43
SUPT7L — TNF reporter robust z-score: -0.42
TPTE — TNF reporter robust z-score: 2.06
TPTE — TNF reporter robust z-score: 1.95
TPTE — TNF reporter robust z-score: 2.45
TPTE — TNF reporter robust z-score: 3.88 (active)
STON2 — TNF reporter robust z-score: 0.5
STON2 — TNF reporter robust z-score: -0.04
STON2 — TNF reporter robust z-score: 0.11
STON2 — TNF reporter robust z-score: 0.47
OR2T12 — TNF reporter robust z-score: 0
OR2T12 — TNF reporter robust z-score: 0.45
OR2T12 — TNF reporter robust z-score: 0.71
OR2T12 — TNF reporter robust z-score: 0.73
MTMR10 — TNF reporter robust z-score: -1.47
MTMR10 — TNF reporter robust z-score: -0.35
MTMR10 — TNF reporter robust z-score: -1.03
MTMR10 — TNF reporter robust z-score: -1.48

Sorted by “TNF reporter robust z-score” (high to low): some entries from above
MTMR10 — TNF reporter robust z-score: -0.35
MTMR10 — TNF reporter robust z-score: -1.03
MTMR10 — TNF reporter robust z-score: -1.47
MTMR10 — TNF reporter robust z-score: -1.48
